From PMC12317070
Results are given in words; binding and its absence hold for the method and conditions named. Binding calls can cover weak binding; strength is not graded here. For some assays here: Binding seen in cells or lysates may run through a third protein.

Protein sequences, listed by entry. Tags and fused reporters are not part of them. Lines headed by an entry give the natural chain unless they say otherwise; changes in a name come on top. Residues count along the entry.
UniProt O95721: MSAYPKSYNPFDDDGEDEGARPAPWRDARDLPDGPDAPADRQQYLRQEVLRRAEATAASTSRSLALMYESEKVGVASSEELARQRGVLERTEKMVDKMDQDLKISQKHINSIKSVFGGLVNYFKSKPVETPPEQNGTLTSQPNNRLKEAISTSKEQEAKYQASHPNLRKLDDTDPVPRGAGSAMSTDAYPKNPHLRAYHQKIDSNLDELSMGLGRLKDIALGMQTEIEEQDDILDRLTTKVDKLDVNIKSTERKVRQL
UniProt P56962, residues 1-224: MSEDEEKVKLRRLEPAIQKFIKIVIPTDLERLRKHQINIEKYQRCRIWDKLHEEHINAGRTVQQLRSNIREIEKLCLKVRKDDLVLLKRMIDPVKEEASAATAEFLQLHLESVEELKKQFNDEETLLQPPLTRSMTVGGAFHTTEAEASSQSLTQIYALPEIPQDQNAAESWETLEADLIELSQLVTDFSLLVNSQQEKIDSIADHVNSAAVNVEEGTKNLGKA
UniProt O70404: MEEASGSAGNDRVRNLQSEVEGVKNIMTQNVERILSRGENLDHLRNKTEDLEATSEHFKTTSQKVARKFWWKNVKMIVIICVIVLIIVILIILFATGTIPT

Experiments:
[1] = target: SNAP29 (untagged, purified) (UniProt O95721); experiment: co-IP; both purified
[2] = target: GST-STX17 (amino acids 1-224) (UniProt P56962); experiment: pull-down; both purified

Substance: VAMP8 (purchased) (from UniProt O70404)
- binding [1]: binds
- binding [2]: binds
